From the supplement of paper PMC10849652
This is one part of the list.

Amino acid sequences for entries named in this document (tags omitted). A change or cut given only in a name is not applied to a line headed by its entry.
UniProt Q6IN84: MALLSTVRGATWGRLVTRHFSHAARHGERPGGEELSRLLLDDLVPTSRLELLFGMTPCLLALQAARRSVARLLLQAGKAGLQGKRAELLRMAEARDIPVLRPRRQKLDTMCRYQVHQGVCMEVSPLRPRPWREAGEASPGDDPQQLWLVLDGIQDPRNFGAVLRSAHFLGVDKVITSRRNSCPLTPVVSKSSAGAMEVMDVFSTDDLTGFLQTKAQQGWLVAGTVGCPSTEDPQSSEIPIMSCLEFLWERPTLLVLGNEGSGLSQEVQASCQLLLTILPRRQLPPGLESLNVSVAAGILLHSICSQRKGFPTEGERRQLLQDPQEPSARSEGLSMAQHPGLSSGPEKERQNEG
UniProt Q7L9L4: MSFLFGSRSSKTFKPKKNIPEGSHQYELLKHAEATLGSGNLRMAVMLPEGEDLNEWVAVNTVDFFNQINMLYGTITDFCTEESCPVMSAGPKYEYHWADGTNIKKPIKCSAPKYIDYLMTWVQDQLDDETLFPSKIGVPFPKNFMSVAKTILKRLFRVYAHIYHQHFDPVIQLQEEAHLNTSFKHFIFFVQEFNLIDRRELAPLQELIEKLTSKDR
UniProt Q9Y5U8: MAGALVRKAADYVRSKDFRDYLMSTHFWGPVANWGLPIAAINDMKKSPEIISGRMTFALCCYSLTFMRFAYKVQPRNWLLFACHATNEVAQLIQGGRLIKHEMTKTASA
UniProt Q13015: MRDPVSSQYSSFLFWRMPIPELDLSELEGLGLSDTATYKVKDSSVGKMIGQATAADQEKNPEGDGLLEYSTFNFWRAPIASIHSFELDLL
UniProt Q8N3F8: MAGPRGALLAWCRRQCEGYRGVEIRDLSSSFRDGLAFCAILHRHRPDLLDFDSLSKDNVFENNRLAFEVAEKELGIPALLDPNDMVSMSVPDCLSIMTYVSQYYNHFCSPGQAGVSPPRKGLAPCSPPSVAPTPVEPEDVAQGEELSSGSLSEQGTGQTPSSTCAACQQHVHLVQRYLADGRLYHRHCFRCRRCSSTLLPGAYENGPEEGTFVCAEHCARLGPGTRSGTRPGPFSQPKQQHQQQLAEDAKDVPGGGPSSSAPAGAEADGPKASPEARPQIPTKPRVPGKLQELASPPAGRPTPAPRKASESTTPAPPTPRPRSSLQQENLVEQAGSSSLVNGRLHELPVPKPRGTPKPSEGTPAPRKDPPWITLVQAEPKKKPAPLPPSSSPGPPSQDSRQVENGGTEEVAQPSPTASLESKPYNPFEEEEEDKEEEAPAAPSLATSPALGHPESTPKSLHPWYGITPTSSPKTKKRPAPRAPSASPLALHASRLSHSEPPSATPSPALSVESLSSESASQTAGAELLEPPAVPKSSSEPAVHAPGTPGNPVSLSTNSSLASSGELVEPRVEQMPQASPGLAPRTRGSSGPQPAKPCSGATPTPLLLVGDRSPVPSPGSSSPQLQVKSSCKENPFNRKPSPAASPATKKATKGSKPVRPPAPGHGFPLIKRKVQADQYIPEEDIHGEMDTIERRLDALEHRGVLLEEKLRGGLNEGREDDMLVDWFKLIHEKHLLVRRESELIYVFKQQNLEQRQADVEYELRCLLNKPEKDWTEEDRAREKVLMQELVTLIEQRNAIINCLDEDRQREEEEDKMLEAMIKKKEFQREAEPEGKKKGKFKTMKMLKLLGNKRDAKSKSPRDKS
UniProt Q70IA6: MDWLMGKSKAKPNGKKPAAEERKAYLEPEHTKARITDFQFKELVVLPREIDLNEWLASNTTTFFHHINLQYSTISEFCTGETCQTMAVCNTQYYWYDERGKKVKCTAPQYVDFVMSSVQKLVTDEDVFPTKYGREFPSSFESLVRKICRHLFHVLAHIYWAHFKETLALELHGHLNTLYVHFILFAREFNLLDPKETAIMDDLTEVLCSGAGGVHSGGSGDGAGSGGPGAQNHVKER
UniProt Q10469: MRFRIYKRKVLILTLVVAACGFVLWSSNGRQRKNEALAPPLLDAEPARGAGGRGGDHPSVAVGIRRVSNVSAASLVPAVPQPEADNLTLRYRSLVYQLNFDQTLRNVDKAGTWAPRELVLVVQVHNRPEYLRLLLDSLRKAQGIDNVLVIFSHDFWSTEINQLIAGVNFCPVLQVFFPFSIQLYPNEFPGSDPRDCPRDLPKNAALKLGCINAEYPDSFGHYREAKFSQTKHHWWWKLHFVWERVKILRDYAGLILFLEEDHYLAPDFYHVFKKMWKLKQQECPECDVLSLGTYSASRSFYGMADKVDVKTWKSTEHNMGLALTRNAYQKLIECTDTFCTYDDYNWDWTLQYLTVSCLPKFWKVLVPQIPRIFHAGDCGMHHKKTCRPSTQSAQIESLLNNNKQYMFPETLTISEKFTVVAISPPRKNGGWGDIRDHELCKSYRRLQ
UniProt P46013: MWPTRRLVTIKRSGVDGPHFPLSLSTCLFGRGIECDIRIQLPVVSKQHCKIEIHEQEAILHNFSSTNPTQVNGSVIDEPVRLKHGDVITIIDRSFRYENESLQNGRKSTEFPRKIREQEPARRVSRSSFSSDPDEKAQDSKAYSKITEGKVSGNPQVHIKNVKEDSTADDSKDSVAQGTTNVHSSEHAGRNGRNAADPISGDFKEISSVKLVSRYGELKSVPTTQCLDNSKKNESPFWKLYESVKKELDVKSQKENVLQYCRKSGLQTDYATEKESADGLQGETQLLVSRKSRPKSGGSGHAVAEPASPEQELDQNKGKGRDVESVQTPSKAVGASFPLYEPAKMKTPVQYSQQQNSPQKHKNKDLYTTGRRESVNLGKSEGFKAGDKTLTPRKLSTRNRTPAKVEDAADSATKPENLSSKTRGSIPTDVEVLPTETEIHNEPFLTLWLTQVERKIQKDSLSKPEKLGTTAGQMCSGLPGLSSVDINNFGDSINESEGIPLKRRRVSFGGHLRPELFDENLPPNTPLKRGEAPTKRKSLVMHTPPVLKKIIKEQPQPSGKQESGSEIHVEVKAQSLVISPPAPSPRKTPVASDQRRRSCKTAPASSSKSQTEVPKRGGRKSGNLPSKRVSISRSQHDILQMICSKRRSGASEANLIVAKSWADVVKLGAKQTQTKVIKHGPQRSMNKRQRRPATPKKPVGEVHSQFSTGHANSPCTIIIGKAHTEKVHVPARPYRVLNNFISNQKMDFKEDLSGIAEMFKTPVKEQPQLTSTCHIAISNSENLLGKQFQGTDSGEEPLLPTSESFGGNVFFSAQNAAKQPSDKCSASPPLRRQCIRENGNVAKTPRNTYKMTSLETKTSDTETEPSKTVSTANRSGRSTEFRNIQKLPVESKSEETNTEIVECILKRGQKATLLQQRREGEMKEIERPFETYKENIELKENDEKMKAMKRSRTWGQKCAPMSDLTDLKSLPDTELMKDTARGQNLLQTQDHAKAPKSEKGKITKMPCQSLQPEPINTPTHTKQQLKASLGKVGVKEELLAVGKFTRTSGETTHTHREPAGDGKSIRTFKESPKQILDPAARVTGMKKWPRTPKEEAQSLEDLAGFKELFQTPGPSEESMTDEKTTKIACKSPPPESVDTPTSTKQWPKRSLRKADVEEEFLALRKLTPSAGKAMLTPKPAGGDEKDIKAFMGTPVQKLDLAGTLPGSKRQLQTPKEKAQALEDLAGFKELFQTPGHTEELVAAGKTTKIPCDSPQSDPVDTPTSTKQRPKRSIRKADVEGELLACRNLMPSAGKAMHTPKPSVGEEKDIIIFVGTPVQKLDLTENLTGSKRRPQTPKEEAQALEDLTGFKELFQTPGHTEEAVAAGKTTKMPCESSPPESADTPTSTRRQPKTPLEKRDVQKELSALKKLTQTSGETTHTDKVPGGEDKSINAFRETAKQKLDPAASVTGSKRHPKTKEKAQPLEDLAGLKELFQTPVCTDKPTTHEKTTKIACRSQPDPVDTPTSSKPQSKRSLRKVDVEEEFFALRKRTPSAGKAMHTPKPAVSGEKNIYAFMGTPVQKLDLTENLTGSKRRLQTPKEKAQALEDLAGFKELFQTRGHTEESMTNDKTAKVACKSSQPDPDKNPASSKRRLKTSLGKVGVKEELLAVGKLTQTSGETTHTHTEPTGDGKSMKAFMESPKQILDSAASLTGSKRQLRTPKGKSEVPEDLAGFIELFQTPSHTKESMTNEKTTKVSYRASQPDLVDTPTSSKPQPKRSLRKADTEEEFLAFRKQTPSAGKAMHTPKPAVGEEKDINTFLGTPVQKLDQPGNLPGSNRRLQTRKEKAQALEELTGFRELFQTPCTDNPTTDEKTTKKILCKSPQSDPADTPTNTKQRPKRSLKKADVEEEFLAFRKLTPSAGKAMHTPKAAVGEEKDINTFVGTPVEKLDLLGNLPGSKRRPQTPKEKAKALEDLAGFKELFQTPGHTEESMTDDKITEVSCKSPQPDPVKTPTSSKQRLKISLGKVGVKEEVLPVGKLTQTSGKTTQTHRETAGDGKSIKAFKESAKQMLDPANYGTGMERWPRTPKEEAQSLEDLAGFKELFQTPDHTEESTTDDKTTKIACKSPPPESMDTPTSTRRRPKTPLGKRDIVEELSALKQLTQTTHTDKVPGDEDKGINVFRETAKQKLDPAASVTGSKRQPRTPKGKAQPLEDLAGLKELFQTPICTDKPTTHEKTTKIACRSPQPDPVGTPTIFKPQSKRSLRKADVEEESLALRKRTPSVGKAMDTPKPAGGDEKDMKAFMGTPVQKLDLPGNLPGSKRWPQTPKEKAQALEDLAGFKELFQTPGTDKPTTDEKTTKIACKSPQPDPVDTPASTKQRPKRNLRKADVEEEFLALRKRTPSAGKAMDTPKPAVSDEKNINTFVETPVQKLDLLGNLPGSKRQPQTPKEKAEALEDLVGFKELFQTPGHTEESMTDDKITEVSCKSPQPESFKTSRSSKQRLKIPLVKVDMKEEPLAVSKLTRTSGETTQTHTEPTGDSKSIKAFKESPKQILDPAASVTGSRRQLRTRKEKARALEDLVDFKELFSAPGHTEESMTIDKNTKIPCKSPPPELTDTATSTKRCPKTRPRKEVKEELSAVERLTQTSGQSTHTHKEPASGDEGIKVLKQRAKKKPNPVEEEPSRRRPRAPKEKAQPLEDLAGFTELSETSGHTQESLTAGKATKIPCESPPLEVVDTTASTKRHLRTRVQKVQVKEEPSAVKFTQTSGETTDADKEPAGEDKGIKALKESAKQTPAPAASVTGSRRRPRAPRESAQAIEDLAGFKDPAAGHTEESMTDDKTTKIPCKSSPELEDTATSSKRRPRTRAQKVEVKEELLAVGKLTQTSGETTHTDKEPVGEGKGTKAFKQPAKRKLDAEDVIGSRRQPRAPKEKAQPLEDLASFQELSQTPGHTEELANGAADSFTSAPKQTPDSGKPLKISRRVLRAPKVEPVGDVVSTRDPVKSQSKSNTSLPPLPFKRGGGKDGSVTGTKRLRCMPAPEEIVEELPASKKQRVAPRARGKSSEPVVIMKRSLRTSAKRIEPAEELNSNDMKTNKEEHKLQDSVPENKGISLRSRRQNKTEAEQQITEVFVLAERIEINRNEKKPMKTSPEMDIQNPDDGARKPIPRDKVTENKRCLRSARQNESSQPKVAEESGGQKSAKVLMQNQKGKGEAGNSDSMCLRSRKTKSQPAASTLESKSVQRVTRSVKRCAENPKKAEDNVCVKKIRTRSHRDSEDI
UniProt Q8IY33: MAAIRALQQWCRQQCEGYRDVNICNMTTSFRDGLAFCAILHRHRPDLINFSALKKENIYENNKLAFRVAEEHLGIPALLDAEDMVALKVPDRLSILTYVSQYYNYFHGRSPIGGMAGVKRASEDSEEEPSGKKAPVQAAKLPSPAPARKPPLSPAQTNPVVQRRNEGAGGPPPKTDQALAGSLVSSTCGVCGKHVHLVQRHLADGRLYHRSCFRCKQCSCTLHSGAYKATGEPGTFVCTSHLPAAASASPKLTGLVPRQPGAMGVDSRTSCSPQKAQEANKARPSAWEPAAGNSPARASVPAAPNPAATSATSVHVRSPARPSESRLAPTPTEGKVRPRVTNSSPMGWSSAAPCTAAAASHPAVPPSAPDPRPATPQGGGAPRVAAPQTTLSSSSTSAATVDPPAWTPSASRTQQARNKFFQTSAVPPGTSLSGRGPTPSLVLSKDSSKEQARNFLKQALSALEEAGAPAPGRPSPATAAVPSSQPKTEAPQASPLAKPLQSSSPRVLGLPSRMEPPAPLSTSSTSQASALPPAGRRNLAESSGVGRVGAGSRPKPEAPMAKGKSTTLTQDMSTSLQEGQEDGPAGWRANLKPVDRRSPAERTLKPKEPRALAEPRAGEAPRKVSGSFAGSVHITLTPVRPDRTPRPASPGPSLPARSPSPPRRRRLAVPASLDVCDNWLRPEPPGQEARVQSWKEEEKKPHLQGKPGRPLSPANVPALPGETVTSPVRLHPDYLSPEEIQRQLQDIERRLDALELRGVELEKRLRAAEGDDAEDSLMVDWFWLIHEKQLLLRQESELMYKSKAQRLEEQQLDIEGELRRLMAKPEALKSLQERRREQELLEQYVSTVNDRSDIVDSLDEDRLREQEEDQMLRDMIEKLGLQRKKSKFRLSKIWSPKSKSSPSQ

Columns and labels:
Test in all cases: log2 fold change, soluble protein after heating vs DMSO (PISA); higher = thermal stabilisation; K562 lysate, 10 uM; active = over 0.2 and 3.5 SD of the protein, either way, in both replicates (recomputed)
erlotinib = compound: C#Cc1cccc(Nc2ncnc3cc(OCCOC)c(OCCOC)cc23)c1 [erlotinib]
Outline: (§1)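 Dounce homogenisation of K562 pellets in PBS pH 7.4 with 1 mM MgCl2 produced a crude extract, used at 1 mg/mL protein. Exposure to 10 μM compound lasted 30 min, and aliquots were then heated for 3 min across 48°C-58°C, pooled and brought to 0.5% NP-40 at 4°C. The supernatant after 21,000xg for 90 min was quantified by TMTpro 16plex LC-MS/MS with channel sums equalised. Duplicate values are given as log-two fold change in thermal stability relative to solvent controls.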

[1] = compound: C/C(=N\NC(=O)C1=CC(=CC=C1)S(=O)(=O)N2CCOCC2)/C3=C(C=CC(=C3)Cl)O
Outline: as §1

[2] = compound: C1=CC(=CC=C1C2=NC3=C(N2)C=C(C=C3)C(=O)N)OC4=CC=C(C=C4)Cl
Outline: as §1

[3] = compound: C1=CC2=C(C=CC(=C2)/C=C\3/C(=O)NC(=NCC4=CC=CS4)S3)N=C1
Outline: as §1

[4] = compound: C1=CC2=NC=CN=C2C=C1/C=C/3\C(=O)NC(=O)S3
Outline: as §1

[5] = compound: C1=CC=C(C=C1)C2=NC(=C(N2)C3=CC=NC=C3)C4=CC(=C(C=C4)Cl)O
Outline: as §1

[6] = compound: C1=CC=C2C(=C1)C3=NNC4=CC=CC(=C43)C2=O
Outline: as §1

[7] = compound: C1CCN(C1)C(=O)NC2=CC=CC(=C2)NC3=NC=C(C(=N3)NCCC4=CN=CN4)Br
Outline: as §1

[8] = compound: C1CN(CCC1(CC2=CC=C(C=C2)Cl)N)C3=NC=NC4=C3C=CN4
Outline: as §1

IRAK-1-4 Inhibitor I = compound: C1COCCN1CCN2C3=CC=CC=C3N=C2NC(=O)C4=CC(=CC=C4)[N+](=O)[O-] [IRAK-1-4 Inhibitor I]
Outline: as §1

Measured: log2 fold change

MRM1 (UniProt Q6IN84)
inactive: erlotinib -0.04 | [1] 0.016 | [2] -0.037 | [3] 0.019 | [4] -0.008 | [5] -0.002 | [6] -0.017 | [7] 0.009 | [8] 0.024 | IRAK-1-4 Inhibitor I 0.084

MPST isoform 2 (UniProt P25325)
inactive: erlotinib 0.008 | [1] -0.005 | [2] 0.001 | [3] 0.027 | [4] 0.032 | [5] -0.028 | [6] 0.004 | [7] -0.025 | [8] 0.036 | IRAK-1-4 Inhibitor I -0.007

MGAT4B isoform 3 (UniProt Q9UQ53)
inactive: erlotinib -0.048 | [1] -0.214 | [2] -0.017 | [3] 0.063 | [4] -0.041 | [5] -0.077 | [6] -0.238 | [7] -0.1 | [8] 0.013 | IRAK-1-4 Inhibitor I -0.022

MOB3B (UniProt Q86TA1)
inactive: erlotinib 0.023 | [1] -0.162 | [2] 0.015 | [3] -0.091 | [4] -0.048 | [5] -0.036 | [6] -0.237 | [7] 0.102 | [8] -0.138 | IRAK-1-4 Inhibitor I 0.061

MLEC (UniProt Q14165)
inactive: erlotinib -0.01 | [1] 0.026 | [2] -0.031 | [3] 0.011 | [4] -0.012 | [5] -0.018 | [6] 0.009 | [7] 0.026 | [8] 0.008 | IRAK-1-4 Inhibitor I 0.032

MRPL17 (UniProt Q9NRX2)
inactive: erlotinib 0 | [1] 0.085 | [2] 0.053 | [3] -0.034 | [4] -0.012 | [5] -0.028 | [6] -0.03 | [7] 0.03 | [8] -0.002 | IRAK-1-4 Inhibitor I 0.013

MOB1B isoform 2 (UniProt Q7L9L4)
inactive: erlotinib -0.004 | [1] 0 | [2] 0.032 | [3] -0.018 | [4] 0.015 | [5] 0.013 | [6] -0.012 | [7] -0.01 | [8] 0.032 | IRAK-1-4 Inhibitor I 0.023

MPC1 (UniProt Q9Y5U8)
inactive: erlotinib -0.056 | [1] -0.403 | [2] -0.119 | [3] -0.19 | [4] 0.035 | [5] 0.006 | [6] 0.296 | [7] -0.05 | [8] 0.086 | IRAK-1-4 Inhibitor I 0.051

MLLT11 (UniProt Q13015)
inactive: erlotinib 0.053 | [1] -0.018 | [2] -0.271 | [3] 0.063 | [4] -0.038 | [5] -0.018 | [6] -0.054 | [7] -0.372 | [8] 0.111 | IRAK-1-4 Inhibitor I 0.044

MICALL1 (UniProt Q8N3F8)
inactive: erlotinib -0.025 | [1] 0.01 | [2] 0.071 | [3] -0.053 | [4] -0.043 | [5] 0.004 | [6] -0.008 | [7] -0.02 | [8] 0.046 | IRAK-1-4 Inhibitor I -0.011

MRPL10 isoform 2 (UniProt Q7Z7H8)
inactive: erlotinib -0.032 | [1] 0 | [2] 0.043 | [3] 0.022 | [4] -0.141 | [5] -0.002 | [6] -0.016 | [7] -0.062 | [8] 0.015 | IRAK-1-4 Inhibitor I 0.014

MOB2 isoform 3 (UniProt Q70IA6)
inactive: erlotinib -0.01 | [1] -0.148 | [2] 0.041 | [3] -0.082 | [4] 0.045 | [5] 0.057 | [6] -0.133 | [7] -0.003 | [8] -0.015 | IRAK-1-4 Inhibitor I -0.032

MGST3 (UniProt O14880)
inactive: erlotinib 0.007 | [1] 0.011 | [2] 0.008 | [3] 0.022 | [4] 0.011 | [5] -0.021 | [6] -0.054 | [7] -0.009 | [8] -0.035 | IRAK-1-4 Inhibitor I 0.019

MPI (UniProt P34949)
inactive: erlotinib 0.02 | [1] 0.045 | [2] 0.046 | [3] -0.018 | [4] -0.014 | [5] 0.022 | [6] -0.02 | [7] -0.003 | [8] 0.038 | IRAK-1-4 Inhibitor I 0.035

MGAT2 (UniProt Q10469)
inactive: erlotinib -0.004 | [1] 0.012 | [2] 0.037 | [3] -0.019 | [4] 0.014 | [5] 0.033 | [6] 0.083 | [7] -0.026 | [8] -0.049 | IRAK-1-4 Inhibitor I 0.001

MMTAG2 (UniProt Q9BU76)
inactive: erlotinib 0.048 | [1] -0.062 | [2] 0.054 | [3] -0.018 | [4] -0.056 | [5] 0 | [6] -0.003 | [7] 0.005 | [8] -0.046 | IRAK-1-4 Inhibitor I -0.01

Taken from the results shown (2 entries):
MOB2 isoform 3 (UniProt Q70IA6)
inactive: erlotinib -0.01 | [1] -0.148 | [2] 0.041 | [3] -0.082 | [4] 0.045 | [5] 0.057 | [6] -0.133 | [7] -0.003 | [8] -0.015 | IRAK-1-4 Inhibitor I -0.032

MGST3 (UniProt O14880)
inactive: erlotinib 0.007 | [1] 0.011 | [2] 0.008 | [3] 0.022 | [4] 0.011 | [5] -0.021 | [6] -0.054 | [7] -0.009 | [8] -0.035 | IRAK-1-4 Inhibitor I 0.019

Remaining list, next part

MRPL14 (UniProt Q6P1L8)
inactive: erlotinib 0.105 | [1] -0.051 | [2] -0.036 | [3] 0.001 | [4] -0.048 | [5] 0.075 | [6] 0.028 | [7] -0.018 | [8] 0.027 | IRAK-1-4 Inhibitor I -0.042

MGAT5 (UniProt Q09328)
inactive: erlotinib 0.037 | [1] 0.03 | [2] 0.087 | [3] 0.044 | [4] 0.078 | [5] -0.003 | [6] 0.132 | [7] -0.03 | [8] 0.066 | IRAK-1-4 Inhibitor I -0.05

MITD1 (UniProt Q8WV92)
inactive: erlotinib -0.016 | [1] 0.025 | [2] -0.019 | [3] 0.021 | [4] 0.014 | [5] -0.072 | [6] -0.016 | [7] -0.047 | [8] -0.02 | IRAK-1-4 Inhibitor I -0.033

MKI67 (UniProt P46013)
inactive: erlotinib 0 | [1] 0.044 | [2] 0.01 | [3] 0.026 | [4] -0.043 | [5] 0.034 | [6] -0.005 | [7] -0.016 | [8] -0.025 | IRAK-1-4 Inhibitor I 0.001

MRPL11 (UniProt Q9Y3B7)
inactive: erlotinib 0.03 | [1] -0.023 | [2] 0.021 | [3] 0.013 | [4] 0.026 | [5] -0.01 | [6] -0.101 | [7] -0.015 | [8] 0.002 | IRAK-1-4 Inhibitor I 0.033

MRM3 (UniProt Q9HC36)
inactive: erlotinib 0.008 | [1] -0.025 | [2] 0 | [3] 0.006 | [4] -0.035 | [5] 0.024 | [6] 0.035 | [7] 0.003 | [8] 0.006 | IRAK-1-4 Inhibitor I -0.014

MPV17L2 (UniProt Q567V2)
inactive: erlotinib -0.03 | [1] 0.16 | [2] 0.114 | [3] -0.078 | [4] 0.042 | [5] 0.004 | [6] -0.184 | [7] 0.003 | [8] 0.039 | IRAK-1-4 Inhibitor I 0.094

MON1B (UniProt Q7L1V2)
inactive: erlotinib 0.042 | [1] 0.029 | [2] -0.014 | [3] -0.01 | [4] 0.006 | [5] -0.015 | [6] 0.005 | [7] -0.009 | [8] 0.04 | IRAK-1-4 Inhibitor I 0.03

MRPL21 (UniProt Q7Z2W9)
inactive: erlotinib -0.068 | [1] -0.012 | [2] 0.072 | [3] -0.002 | [4] 0.032 | [5] 0.03 | [6] 0.019 | [7] -0.071 | [8] 0.05 | IRAK-1-4 Inhibitor I 0.002

MOGS (UniProt Q13724)
inactive: erlotinib -0.018 | [1] -0.035 | [2] -0.068 | [3] 0.009 | [4] -0.003 | [5] -0.033 | [6] -0.051 | [7] 0.015 | [8] 0.009 | IRAK-1-4 Inhibitor I 0.002

MICALL2 (UniProt Q8IY33)
inactive: erlotinib -0.041 | [1] -0.044 | [2] 0.003 | [3] -0.003 | [4] -0.033 | [5] -0.009 | [6] -0.005 | [7] -0.026 | [8] 0.009 | IRAK-1-4 Inhibitor I 0.016
